Reference: the supplement of paper PMC8728848
This is one part of the list.

Columns and labels:
Test in all cases: glycan array binding signal (z-score within array); higher = stronger binding
Details in all cases: glycan notation: IUPAC condensed, linker removed
Fuc(a1-2)Gal = biological target: Fuc(a1-2)Gal
In short: (§1)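 The Consortium for Functional Glycomics database supplied 3228 glycan arrays, of which those lacking an available protein sequence were dropped. The binding signal, a within-array Z-score, was averaged across arrays of the same protein sequence and across linkers. Negative scores can be read as non-binding.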

Fuc(a1-2)Gal(b1-3)GalNAc = biological target: Fuc(a1-2)Gal(b1-3)GalNAc
In short: as §1

[1] = biological target: Fuc(a1-2)Gal(b1-3)GalNAc(a1-3)[Fuc(a1-2)]Gal(b1-4)Glc
In short: as §1

[2] = biological target: Fuc(a1-2)Gal(b1-3)GalNAc(a1-3)[Fuc(a1-2)]Gal(b1-4)GlcNAc
In short: as §1

[3] = biological target: Fuc(a1-2)Gal(b1-3)GalNAc(b1-3)Gal
In short: as §1

[4] = biological target: Fuc(a1-2)Gal(b1-3)GalNAc(b1-3)Gal(a1-4)Gal(b1-4)Glc
In short: as §1

[5] = biological target: Fuc(a1-2)Gal(b1-3)GalNAc(b1-4)[Neu5Ac(a2-3)]Gal(b1-4)Glc
In short: as §1

Fuc(a1-2)Gal(b1-3)GlcNAc = biological target: Fuc(a1-2)Gal(b1-3)GlcNAc
In short: as §1

[6] = biological target: Fuc(a1-2)Gal(b1-3)GlcNAc(b1-2)Man(a1-3)[Fuc(a1-2)Gal(b1-3)GlcNAc(b1-2)Man(a1-6)]Man(b1-4)GlcNAc(b1-4)GlcNAc
In short: as §1

[7] = biological target: Fuc(a1-2)Gal(b1-3)GlcNAc(b1-2)Man(a1-3)[Fuc(a1-2)Gal(b1-3)GlcNAc(b1-2)Man(a1-6)]Man(b1-4)GlcNAc(b1-4)[Fuc(a1-6)]GlcNAc
In short: as §1

[8] = biological target: Fuc(a1-2)Gal(b1-3)GlcNAc(b1-3)Gal(b1-4)Glc
In short: as §1

[9] = biological target: Fuc(a1-2)Gal(b1-3)GlcNAc(b1-3)GalNAc
In short: as §1

[10] = biological target: Fuc(a1-2)Gal(b1-3)GlcNAc(b1-3)[Fuc(a1-2)Gal(b1-3)GlcNAc(b1-6)]GalNAc
In short: as §1

[11] = biological target: Fuc(a1-2)Gal(b1-3)GlcNAc(b1-3)[Gal(b1-4)GlcNAc(b1-6)]Gal(b1-4)Glc
In short: as §1

[12] = biological target: Fuc(a1-2)Gal(b1-3)GlcNAc(b1-3)[Neu5Ac(a2-6)Gal(b1-4)GlcNAc(b1-6)]Gal(b1-4)Glc
In short: as §1

[13] = biological target: Fuc(a1-2)Gal(b1-3)GlcNAc6S
In short: as §1

[14] = biological target: Fuc(a1-2)Gal(b1-3)[Fuc(a1-4)]GlcNAc
In short: as §1

[15] = biological target: Fuc(a1-2)Gal(b1-3)[Fuc(a1-4)]GlcNAc(b1-2)Man(a1-3)[Fuc(a1-2)Gal(b1-3)[Fuc(a1-4)]GlcNAc(b1-2)Man(a1-3)]Man(b1-4)GlcNAc(b1-4)GlcNAc
In short: as §1

[16] = biological target: Fuc(a1-2)Gal(b1-3)[Fuc(a1-4)]GlcNAc(b1-2)Man(a1-3)[Fuc(a1-2)Gal(b1-3)[Fuc(a1-4)]GlcNAc(b1-2)Man(a1-6)]Man(b1-4)GlcNAc(b1-4)[Fuc(a1-6)]GlcNAc(b1-4)[Fuc(a1-6)]GlcNAc
In short: as §1

[17] = biological target: Fuc(a1-2)Gal(b1-3)[Fuc(a1-4)]GlcNAc(b1-3)[Fuc(a1-3)[Gal(b1-4)]GlcNAc(b1-6)]Gal(b1-4)Glc
In short: as §1

[18] = biological target: Fuc(a1-2)Gal(b1-3)[Fuc(a1-4)]GlcNAc(b1-3)[Gal(b1-4)GlcNAc(b1-6)]Gal(b1-4)Glc
In short: as §1

Fuc(a1-2)Gal(b1-4)Glc = biological target: Fuc(a1-2)Gal(b1-4)Glc
In short: as §1

Fuc(a1-2)Gal(b1-4)Glc6S = biological target: Fuc(a1-2)Gal(b1-4)Glc6S
In short: as §1

Fuc(a1-2)Gal(b1-4)GlcNAc = biological target: Fuc(a1-2)Gal(b1-4)GlcNAc
In short: as §1

[19] = biological target: Fuc(a1-2)Gal(b1-4)GlcNAc(b1-2)Man
In short: as §1

[20] = biological target: Fuc(a1-2)Gal(b1-4)GlcNAc(b1-2)Man(a1-3)[Fuc(a1-2)Gal(b1-4)GlcNAc(b1-2)Man(a1-6)]Man(b1-4)GlcNAc(b1-4)GlcNAc
In short: as §1

[21] = biological target: Fuc(a1-2)Gal(b1-4)GlcNAc(b1-2)Man(a1-3)[Fuc(a1-2)Gal(b1-4)GlcNAc(b1-2)Man(a1-6)]Man(b1-4)GlcNAc(b1-4)[Fuc(a1-6)]GlcNAc
In short: as §1

[22] = biological target: Fuc(a1-2)Gal(b1-4)GlcNAc(b1-2)[Fuc(a1-2)Gal(b1-4)GlcNAc(b1-4)]Man(a1-3)[Fuc(a1-2)Gal(b1-4)GlcNAc(b1-2)Man(a1-6)]Man(b1-4)GlcNAc(b1-4)GlcNAc
In short: as §1

[23] = biological target: Fuc(a1-2)Gal(b1-4)GlcNAc(b1-3)Gal(b1-4)GlcNAc
In short: as §1

[24] = biological target: Fuc(a1-2)Gal(b1-4)GlcNAc(b1-3)Gal(b1-4)GlcNAc(b1-2)Man(a1-3)[Fuc(a1-2)Gal(b1-4)GlcNAc(b1-3)Gal(b1-4)GlcNAc(b1-2)Man(a1-6)]Man(b1-4)GlcNAc(b1-4)GlcNAc
In short: as §1

B1: PX14343E-bfa-545-24-545 (Bacteroides fragilis) (protein)
chain: LDRYPQEELSDGSFWKTPDDANKVVSDLYGYLSTWDQDNDINSDNATMGIKWAAGNVSKGIYDPADQGWSGDYANVRQCNLILSKIDEIPDYPEADKTKALGQVYFFRAYIYFNLIRSFGDVPYIDKPLDLKDMEGITRMPRAEVYEKIMADFDKAIAALPTEWGASDYGRVTKGAAMAMKARAALYYGNWDTAATEAKNVMDLGLYELYDKDNTGKYAELFWEKADGCDEFILVTQFNYPDKTHYLMGWECFPTKGWGGMNPTQSLVDAFEDSEGAPISKSKIYDPTDPFKNRDPRLEVDILHDGEEMYGVTIKVAPLASSGSTGINQHNDATETGYYGQKWLDPSLDPLSDGWNMGKDWVHIRYAEVLLTYAEAKNELQGLDPEAFDAVNQVRRRVGMPELQNTDPSKPTYCATQDDLRQRIRNEWRVEFCLEGGKRMWDIRRWGIAKDVLNAPFEGLKYKIVDNPNDPDKKVDGGKMCILYQGDPIILSGSRYSDNNYLFPVPQSEIDLNPALTQNPGY
glycan array binding signal (z-score) (Fuc(a1-2)Gal): 0.233
glycan array binding signal (z-score) (Fuc(a1-2)Gal(b1-3)GalNAc): -0.235
glycan array binding signal (z-score) [1]: -0.518
glycan array binding signal (z-score) [2]: -0.544
glycan array binding signal (z-score) [3]: -0.378
glycan array binding signal (z-score) [4]: -0.281
glycan array binding signal (z-score) [5]: 1.11
glycan array binding signal (z-score) (Fuc(a1-2)Gal(b1-3)GlcNAc): -0.42
glycan array binding signal (z-score) [6]: 1.47
glycan array binding signal (z-score) [7]: -0.01
glycan array binding signal (z-score) [8]: -0.246
glycan array binding signal (z-score) [9]: -0.544
glycan array binding signal (z-score) [10]: 0.134
glycan array binding signal (z-score) [11]: -0.399
glycan array binding signal (z-score) [12]: 0.185
glycan array binding signal (z-score) [13]: 0.538
glycan array binding signal (z-score) [14]: -0.113
glycan array binding signal (z-score) [15]: -0.17
glycan array binding signal (z-score) [16]: -0.003
glycan array binding signal (z-score) [17]: -0.77
glycan array binding signal (z-score) [18]: -1.07
glycan array binding signal (z-score) (Fuc(a1-2)Gal(b1-4)Glc): 0.538
glycan array binding signal (z-score) (Fuc(a1-2)Gal(b1-4)Glc6S): 0.236
glycan array binding signal (z-score) (Fuc(a1-2)Gal(b1-4)GlcNAc): -0.649
glycan array binding signal (z-score) [19]: -0.116
glycan array binding signal (z-score) [20]: 1.42
glycan array binding signal (z-score) [21]: 0.488
glycan array binding signal (z-score) [22]: -0.211
glycan array binding signal (z-score) [23]: -0.229
glycan array binding signal (z-score) [24]: 0.227
